# Over roughly 33,000 sequences, “E-score (-0.5 to 0.5)” has its median near -0.016; the highest 2% begin near 0.3. This is one part of the list.
# Biological target: T1, Yer184c (UniProt P39961)
# T1 sequence: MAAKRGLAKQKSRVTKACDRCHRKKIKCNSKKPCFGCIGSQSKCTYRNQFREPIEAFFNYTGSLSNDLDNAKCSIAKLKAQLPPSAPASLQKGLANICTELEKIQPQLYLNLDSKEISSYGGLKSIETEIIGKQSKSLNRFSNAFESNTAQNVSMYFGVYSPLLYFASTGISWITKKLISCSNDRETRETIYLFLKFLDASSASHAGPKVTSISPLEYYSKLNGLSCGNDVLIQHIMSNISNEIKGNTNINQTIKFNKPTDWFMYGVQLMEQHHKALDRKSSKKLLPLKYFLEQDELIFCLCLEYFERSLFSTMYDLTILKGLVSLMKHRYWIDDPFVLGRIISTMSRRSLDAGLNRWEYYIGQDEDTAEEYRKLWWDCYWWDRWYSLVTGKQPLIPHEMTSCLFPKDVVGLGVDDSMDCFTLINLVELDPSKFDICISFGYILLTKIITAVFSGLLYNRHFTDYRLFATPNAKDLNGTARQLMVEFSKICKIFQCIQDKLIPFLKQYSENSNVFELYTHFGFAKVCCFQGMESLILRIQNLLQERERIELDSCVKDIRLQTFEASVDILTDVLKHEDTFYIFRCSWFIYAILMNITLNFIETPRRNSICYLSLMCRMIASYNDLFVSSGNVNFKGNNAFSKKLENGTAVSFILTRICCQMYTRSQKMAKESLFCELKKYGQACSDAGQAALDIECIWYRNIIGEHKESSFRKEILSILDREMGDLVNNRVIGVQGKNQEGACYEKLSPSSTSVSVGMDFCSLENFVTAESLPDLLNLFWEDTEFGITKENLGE
# Assay: PBM E-score (8-mer binding enrichment) (E-score (-0.5 to 0.5)); higher = stronger / more preferred TF binding
# Details: protein concentration: 100 nM; construct: GST-full length
# Protocol: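 Universal 'all 10-mer' protein binding microarrays (Agilent AMADID 015681) probed with GST-tagged S. cerevisiae TFs (full-length or DBD) made by in vitro transcription/translation (PURExpress), about 100-200 nM. Bound TF was detected with fluorescent anti-GST. Each ungapped 8-mer (which stands for itself and its reverse complement) is scored by the PBM enrichment score (E-score), a modified Wilcoxon-Mann-Whitney statistic from -0.5 to +0.5, computed with the Universal PBM Analysis Suite. Scale: above 0.35 generally sequence-specific binding.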
row,Sequence,PBM E-score
1,AGGTCGCA,-0.0629
2,GTTTCAAA,0.153
3,AGGAGGGA,-0.143
4,GACACCAC,-0.182
5,AGATAAAT,0.0452
6,ACGGCAGC,0.161
7,CGTAGTGA,-0.00872
8,AATGTAGC,-0.164
9,ACATACTC,0.0395
10,ACAGAGAT,0.0773
11,CACGCACG,0.0153
12,ATTGGGTG,0.0479
13,ATTTTGCC,0.0111
14,CATCGTGG,-0.245
15,TGCAGTAA,-0.0942
16,ACCGTGGG,-0.135
17,ACTAGGCA,-0.16
18,GTCCGGAA,0.429
19,ACGGCCTG,0.0944
20,GGAACGCC,0.0678
21,CCACCTGA,-0.069
22,AACACCGC,-0.13
23,AAAATCAA,0.176
24,TGTCTTAA,0.0193

row,Sequence,PBM E-score
1,ATCACTAC,-0.00696
2,AGTTCGGA,0.264
3,ATTTGCAA,0.221
4,CAGGCGGA,0.267
5,GTCACTCA,0.128
6,TAAAGAGA,-0.0427
7,GCAATCTA,-0.00051
8,ACTGCGTG,-0.268
9,GCAGCTCA,-0.108
10,CAGCGATC,0.00289
11,TGATAACA,0.171
12,CGCCTCAG,-0.0607
13,ATTTGATC,0.0937
14,AATACCCC,-0.218
15,CCTAGAAC,0.0255
16,CCTATCTA,-0.132
17,ATGGAATA,0.127
18,AAAACCAG,-0.0215
19,ATCCGTCG,0.168
20,TAATCCCA,-0.216
21,GATTGGAC,-0.14
22,GAACTGAC,0.0493
23,CTGGTCTC,-0.24
24,GCAACCAC,0.0637

# Pulled one by one from above (four):
row,Sequence,PBM E-score
10,CAGCGATC,0.00289
19,ATCCGTCG,0.168
6,TAAAGAGA,-0.0427
5,GTCACTCA,0.128

# Given with tabs: entries from further up.
row	Sequence	PBM E-score
5	GTCACTCA	0.128
23	CTGGTCTC	-0.24

# (listing goes on)

row,Sequence,PBM E-score
1,ACCCATTG,-0.0496
2,ACGTTGCC,-0.14
3,CCACTAAA,-0.0267
4,ACAACGCA,0.0781
5,AGTTGGAG,-0.106
6,AATATCTC,0.106
7,ATATTGCG,-0.0525
8,ACAGAGCA,0.0955
9,ACTCATTA,-0.0725
10,GTCCTCGA,-0.0311
11,AGCAACAA,0.227
12,ACGGTGAT,-0.146
13,CAACGCGC,0.154
14,AAACTAGC,-0.093
15,GGATAAAC,0.224
16,AAAGCACA,0.0779
17,AATACATA,0.0439
18,AACGGGCG,-0.157
19,GGTTACAA,0.23
20,AACCTGCA,-0.0155
21,AAGAAATC,-0.0468
22,CCCCGTGA,-0.178
23,CGCAGGTC,-0.21
24,GAGAATAA,0.168

row,Sequence,PBM E-score
1,GCTCATGA,-0.0987
2,GAGGGGTA,-0.195
3,AGAGCGAA,-0.0274
4,CATTAGAC,-0.0664
5,TATAAATA,0.266
6,GGGTTTAC,-0.0429
7,ATACCTAA,0.054
8,ATACGCCG,0.204
9,AGCGAGTA,0.189
10,CTGAGACC,-0.14
11,ACTGGCAC,-0.14
12,GATCTCAA,0.125
13,AGTGCCAA,-0.123
14,GGATGGCC,-0.0362
15,TCATCGCA,-0.0385
16,AGAGGCAG,-0.217
17,AGCACGTG,0.144
18,AGGGAGTG,-0.291
19,AATAGTGA,0.126
20,ACTAGCCC,-0.0746
21,CCTCATAG,-0.187
22,AACTGTAT,0.167

# From the supplement of paper PMC3334620
